The record followed here is publication PMC5385555, “Molecular basis for the behavioral effects of the odorant degrading enzyme Esterase 6 in Drosophila” (Scientific Reports, 2017).

No constants are given. Whether binding was seen depends on the method and setting. Some binding calls cover weakened binding; strength is not graded here.

This assay concerns the target EST6-1 (esterase 6 variant with greatest soluble expression after six rounds of directed evolution) (Drosophila melanogaster) (UniProt P08171). The assay can be described thus: SEC; Hiload 26/600 Superdex 200 pg column, 20 mM Hepes pH 7.5, 50 mM NaCl; self-association of EST6-1 (monomer and dimer peaks); both purified. For orientation: Size exclusion chromatography separates by hydrodynamic size, large species first.

B1: EST6-1 (esterase 6 variant with greatest soluble expression after six rounds of directed evolution) (enzyme, UniProt P08171 22-544)
chain: SDTDDPLLVQLPQGVLRGRDNGSYYSYESIPYAEPPTGDLRFEAPEPYKQKWSDIFDATKTPVACLQWDQFTPGANKLVGEEDCLTVSVYKPKNSKRNSFPVVAHIHGGAFMFGAAWQNGHENVMREGKFILVKISYRLGPLGFLSTGDRDLPGNYGLKDQRLALKWIKQNIASFGGEPQNVLLVGHSAGGASVHLQMLREDFGQLAKAAFSFSGNALDPWVIQKGARERAFELGRSVGCESAEDSASLKKCLKSKPASELVTAVRKFLIFSYVPFAPFSPVLEPSDAPGAFITQDPRDVIKSGKFGQVPWAVSYVTEDGGYNAALLLKERKSGVVIDDLNERWLELAPYLLFYRDTKTKKDMDDYSRKIKQEYIGNQRFDIGSYSELQRLFTDILFKNGTQESLDLHRKYGKSPVYAYVYDNPAEKGIAQVLANRTDYDFGTVHGDDYSLIFENSVRDVEMRPDEQIISRNFINMLADFASSDDGSLKYGECDFKDNVGSEKFQLLAIYTDGCQNRQHVEFP
On to B1, for which the binding result was “binds weakly”.
